Laboratory results from PMC5805366.
Results are given in words; binding and its absence hold for the method and conditions named. In cells and extracts the contact can be indirect. Some results given as binding are weak or reduced against the parent protein; the word gives no strength.

Tests used:
Conditions in all cases: remark: other sources report otherwise
[1] = target: T1, endogenous human Nmi (human (endogenous in U251 and human foreskin fibroblasts)), Q13287; assay: co-IP; U251 and U251-C cells (also cells with the empty vector pCMV-FLAG), no UL23, treated with IFN-γ (1000 U/ml) for 12 h; IP with anti-UL23, anti-Nmi or anti-STAT1
T1 chain: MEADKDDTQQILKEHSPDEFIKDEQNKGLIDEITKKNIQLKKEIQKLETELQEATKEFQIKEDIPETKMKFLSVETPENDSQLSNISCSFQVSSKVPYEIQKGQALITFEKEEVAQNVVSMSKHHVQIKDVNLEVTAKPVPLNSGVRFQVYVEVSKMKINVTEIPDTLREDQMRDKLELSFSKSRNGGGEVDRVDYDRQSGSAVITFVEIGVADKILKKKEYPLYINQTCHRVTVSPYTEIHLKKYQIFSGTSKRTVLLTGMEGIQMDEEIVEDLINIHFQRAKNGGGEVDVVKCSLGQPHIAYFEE

[2] = target: T1, endogenous human Nmi (human (endogenous …)); assay: co-IP; IFN-γ-treated human foreskin fibroblasts infected with ΔUL23 or UL23stop
[3] = target: T1, endogenous human Nmi (human (endogenous …)); assay: co-IP; IFN-γ-treated U251 cells infected with the UL23-deficient mutants ΔUL23 or UL23stop (MOI = 1), lysates at 24-48 h postinfection; IP with anti-UL23, anti-Nmi or anti-STAT1

Measured: binding

B1: endogenous human STAT1, P42224 1-750 (protein)
chain: MSQWYELQQLDSKFLEQVHQLYDDSFPMEIRQYLAQWLEKQDWEHAANDVSFATIRFHDLLSQLDDQYSRFSLENNFLLQHNIRKSKRNLQDNFQEDPIQMSMIIYSCLKEERKILENAQRFNQAQSGNIQSTVMLDKQKELDSKVRNVKDKVMCIEHEIKSLEDLQDEYDFKCKTLQNREHETNGVAKSDQKQEQLLLKKMYLMLDNKRKEVVHKIIELLNVTELTQNALINDELVEWKRRQQSACIGGPPNACLDQLQNWFTIVAESLQQVRQQLKKLEELEQKYTYEHDPITKNKQVLWDRTFSLFQQLIQSSFVVERQPCMPTHPQRPLVLKTGVQFTVKLRLLVKLQELNYNLKVKVLFDKDVNERNTVKGFRKFNILGTHTKVMNMEESTNGSLAAEFRHLQLKEQKNAGTRTNEGPLIVTEELHSLSFETQLCQPGLVIDLETTSLPVVVISNVSQLPSGWASILWYNMLVAEPRNLSFFLTPPCARWAQLSEVLSWQFSSVTKRGLNVDQLNMLGEKLLGPNASPDGLIPWTRFCKENINDKNFPFWLWIESILELIKKHLLPLWNDGCIMGFISKERERALLKDQQPGTFLLRFSESSREGAITFTWVERSQNGGEPDFHAVEPYTKKELSAVTFPDIIRNYKVMAAENIPENPLKYLYPNIDKDHAFGKYYSRPKEAPEPMELDGPKGTGYIKTELISVSEVHPSRLQTTDNLLPMSPEEFDEVSRIVGSVEFDSMMNTV
binds: all assays above
